Data taken from the supplement of paper PMC8728848.
This is one part of the list.

Key:
Assay in all cases: glycan array binding signal (z-score within array); higher = stronger binding
Details in all cases: glycan notation: IUPAC condensed, linker removed
[1] = target: Gal(b1-3)GlcNAc(b1-2)Man(a1-3)[GlcNAc(b1-4)][Gal(b1-3)GlcNAc(b1-2)Man(a1-6)]Man(b1-4)GlcNAc(b1-4)GlcNAc
Summary of the method: (§1)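 Glycan array binding is given as a within-array Z-score, which can be read as non-binding when negative. The arrays, 3228 of them, came from the Consortium for Functional Glycomics database and were retained only where the protein sequence was available. Z-scores were averaged across arrays of the same protein sequence at different concentrations or buffers and across linkers.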

[2] = target: Gal(b1-3)GlcNAc(b1-2)[Gal(b1-3)GlcNAc(b1-6)]Man(a1-6)[Gal(b1-3)GlcNAc(b1-2)Man(a1-3)]Man(b1-4)GlcNAc(b1-4)GlcNAc
Summary of the method: as §1

[3] = target: Gal(b1-3)GlcNAc(b1-3)Gal(b1-3)GlcNAc
Summary of the method: as §1

[4] = target: Gal(b1-3)GlcNAc(b1-3)Gal(b1-4)Glc
Summary of the method: as §1

[5] = target: Gal(b1-3)GlcNAc(b1-3)Gal(b1-4)GlcNAc
Summary of the method: as §1

[6] = target: Gal(b1-3)GlcNAc(b1-3)Gal(b1-4)GlcNAc(b1-2)Man(a1-3)[Gal(b1-3)GlcNAc(b1-3)Gal(b1-4)GlcNAc(b1-2)Man(a1-6)]Man(b1-4)GlcNAc(b1-4)GlcNAc
Summary of the method: as §1

[7] = target: Gal(b1-3)GlcNAc(b1-3)Gal(b1-4)GlcNAc(b1-2)[Gal(b1-3)GlcNAc(b1-3)Gal(b1-4)GlcNAc(b1-6)]Man(a1-6)[Gal(b1-3)GlcNAc(b1-3)Gal(b1-4)GlcNAc(b1-2)Man(a1-3)]Man(b1-4)GlcNAc(b1-4)[Fuc(a1-6)]GlcNAc
Summary of the method: as §1

[8] = target: Gal(b1-3)GlcNAc(b1-3)Gal(b1-4)GlcNAc(b1-3)Gal(b1-4)GlcNAc(b1-2)[Gal(b1-3)GlcNAc(b1-3)Gal(b1-4)GlcNAc(b1-3)Gal(b1-4)GlcNAc(b1-6)]Man(a1-6)[Gal(b1-3)GlcNAc(b1-3)Gal(b1-4)GlcNAc(b1-3)Gal(b1-4)GlcNAc(b1-2)Man(a1-3)]Man(b1-4)GlcNAc(b1-4)[Fuc(a1-6)]GlcNAc
Summary of the method: as §1

[9] = target: Gal(b1-3)GlcNAc(b1-3)Gal(b1-4)GlcNAc(b1-6)[Gal(b1-3)GlcNAc(b1-3)]Gal(b1-4)Glc
Summary of the method: as §1

[10] = target: Gal(b1-3)GlcNAc(b1-3)Gal(b1-4)[Fuc(a1-3)]GlcNAc(b1-6)[Gal(b1-3)GlcNAc(b1-3)]Gal(b1-4)Glc
Summary of the method: as §1

[11] = target: Gal(b1-3)GlcNAc(b1-3)GalNAc
Summary of the method: as §1

[12] = target: Gal(b1-3)GlcNAc(b1-6)Gal(b1-4)GlcNAc
Summary of the method: as §1

[13] = target: Gal(b1-3)GlcNAc(b1-6)GalNAc
Summary of the method: as §1

[14] = target: Gal(b1-3)GlcNAc(b1-6)[Gal(b1-3)]GalNAc
Summary of the method: as §1

Gal(b1-3)GlcNAc6S = target: Gal(b1-3)GlcNAc6S
Summary of the method: as §1

[15] = target: Gal(b1-3)[Fuc(a1-4)]GlcNAc
Summary of the method: as §1

[16] = target: Gal(b1-3)[Fuc(a1-4)]GlcNAc(b1-2)Man
Summary of the method: as §1

[17] = target: Gal(b1-3)[Fuc(a1-4)]GlcNAc(b1-2)Man(a1-3)[Gal(b1-3)[Fuc(a1-4)]GlcNAc(b1-2)Man(a1-6)]Man(b1-4)GlcNAc(b1-4)[Fuc(a1-6)]GlcNAc
Summary of the method: as §1

[18] = target: Gal(b1-3)[Fuc(a1-4)]GlcNAc(b1-3)Gal(b1-3)[Fuc(a1-4)]GlcNAc
Summary of the method: as §1

[19] = target: Gal(b1-3)[Fuc(a1-4)]GlcNAc(b1-3)Gal(b1-4)GlcNAc
Summary of the method: as §1

[20] = target: Gal(b1-3)[Fuc(a1-4)]GlcNAc(b1-3)Gal(b1-4)[Fuc(a1-3)]GlcNAc
Summary of the method: as §1

[21] = target: Gal(b1-3)[Fuc(a1-4)]GlcNAc(b1-6)GalNAc
Summary of the method: as §1

[22] = target: Gal(b1-3)[GlcNAc(b1-6)]GalNAc
Summary of the method: as §1

[23] = target: Gal(b1-3)[Neu5Ac(a2-6)]GalNAc
Summary of the method: as §1

[24] = target: Gal(b1-3)[Neu5Ac(a2-6)]GlcNAc(b1-4)Gal(b1-4)Glc
Summary of the method: as §1

[25] = target: Gal(b1-3)[Neu5Ac(b2-6)]GalNAc
Summary of the method: as §1

Gal(b1-4)Gal = target: Gal(b1-4)Gal
Summary of the method: as §1

[26] = target: Gal(b1-4)GalNAc(a1-3)[Fuc(a1-2)]Gal(b1-4)GlcNAc
Summary of the method: as §1

[27] = target: Gal(b1-4)GalNAc(b1-3)[Fuc(a1-2)]Gal(b1-4)GlcNAc
Summary of the method: as §1

Gal(b1-4)Glc = target: Gal(b1-4)Glc
Summary of the method: as §1

B1: Blon2355mut (Bifidobacterium longum) (protein)
chain: MVQEPTLEWHVIPEPTNVEPLVGTCSLPLSGTVVEQRGADDAEAVFARQLVDDIKRVCGGRWQVASGEVQREVTLRTSPSLDDWSYVLEVSPDGVVITGSGFEGVRDGVQTLRQIIRQIGLTIPCMVIRDRPAFSTRGYYLDVTRGRVPSMAWLKSWVDRLCFYKYNQFQLYIEHTFQFNGLSEVWRGADPLTSSDILELDSYCAARGIELVPSVSTFGHHYTALRTRQLRDLGEFPEDADRPFSLIERMTHHTLNITDERSYEFSTSLIDELMPLFRSRKFNICANETFDLGKGRSKQESAKRGVGAMYADFVERLCRHVDDRGHDVMVWADVALEHPEIIDTLPKNITWLNWQYEPNVDDGTTAALADAGATQMVCPAVWCWNALIPRIDDAWNNITRMARHGRAHDVSGMLVTDWGDFGHVNDPRMSVPGMIFGAQQSWNPDAELSEVDMLSRISTIEYGDHTGSVVGALRGASAKGGFSWSDLVTYLELDDGRGGCNTEIVRVMGCLEAYRNDLPQSGQARLADARVSMLRTLRDSILAGRELNGKLDDAAKDITQLLRVAGDPSSAAVWSLAIDGQRLLNRVGLALLAAHGVVRQDEAGIDAAKLADELECWTEQYSRLWHEVSRQSELARIQHVVWRAADVLRSI
Q: For B1, which “glycan array binding signal (z-score)” value [1] is on record?
A: -1.02

Q: And the “glycan array binding signal (z-score)” value [2]?
A: 0.925

Q: And the “glycan array binding signal (z-score)” value [3]?
A: 0.371

Q: And the “glycan array binding signal (z-score)” value [4]?
A: -0.735

Q: And the “glycan array binding signal (z-score)” value [5]?
A: -0.288

Q: What about the “glycan array binding signal (z-score)” value [6] of the same binder?
A: -0.406

Q: What about the “glycan array binding signal (z-score)” value [7] of the same binder?
A: 2.04

Q: What about the “glycan array binding signal (z-score)” value [8] of the same binder?
A: 0.301

Q: And the “glycan array binding signal (z-score)” value [9]?
A: -0.197

Q: What about the “glycan array binding signal (z-score)” value [10] of the same binder?
A: -1.19

Q: What about the “glycan array binding signal (z-score)” value [11] of the same binder?
A: -0.373

Q: And the “glycan array binding signal (z-score)” value [12]?
A: -0.48

Q: And the “glycan array binding signal (z-score)” value [13]?
A: -0.309

Q: What about the “glycan array binding signal (z-score)” value [14] of the same binder?
A: 0.181

Q: What about the “glycan array binding signal (z-score)” value (Gal(b1-3)GlcNAc6S) of the same binder?
A: 0.237

Q: And the “glycan array binding signal (z-score)” value [15]?
A: -0.759

Q: What about the “glycan array binding signal (z-score)” value [16] of the same binder?
A: -0.393

Q: And the “glycan array binding signal (z-score)” value [17]?
A: 0.686

Q: And the “glycan array binding signal (z-score)” value [18]?
A: -1.02

Q: And the “glycan array binding signal (z-score)” value [19]?
A: -0.01

Q: And the “glycan array binding signal (z-score)” value [20]?
A: 0.567

Q: And the “glycan array binding signal (z-score)” value [21]?
A: -0.606

Q: And the “glycan array binding signal (z-score)” value [22]?
A: 0.705

Q: What about the “glycan array binding signal (z-score)” value [23] of the same binder?
A: -0.387

Q: And the “glycan array binding signal (z-score)” value [24]?
A: -0.749

Q: And the “glycan array binding signal (z-score)” value [25]?
A: -0.401

Q: What about the “glycan array binding signal (z-score)” value (Gal(b1-4)Gal) of the same binder?
A: -0.262

Q: What about the “glycan array binding signal (z-score)” value [26] of the same binder?
A: -0.55

Q: What about the “glycan array binding signal (z-score)” value [27] of the same binder?
A: 0.202

Q: What about the “glycan array binding signal (z-score)” value (Gal(b1-4)Glc) of the same binder?
A: 0.223
